Experimental findings from patent US20230357323A1, “HUMAN IL23 RECEPTOR BINDING POLYPEPTIDES” (University of Washington, priority 2020, published 2023) are described below.

The chains behind the UniProt entries cited, without tags or fusion partners. Residues count along the entry.
UniProt Q5VWK5, residues 24-355: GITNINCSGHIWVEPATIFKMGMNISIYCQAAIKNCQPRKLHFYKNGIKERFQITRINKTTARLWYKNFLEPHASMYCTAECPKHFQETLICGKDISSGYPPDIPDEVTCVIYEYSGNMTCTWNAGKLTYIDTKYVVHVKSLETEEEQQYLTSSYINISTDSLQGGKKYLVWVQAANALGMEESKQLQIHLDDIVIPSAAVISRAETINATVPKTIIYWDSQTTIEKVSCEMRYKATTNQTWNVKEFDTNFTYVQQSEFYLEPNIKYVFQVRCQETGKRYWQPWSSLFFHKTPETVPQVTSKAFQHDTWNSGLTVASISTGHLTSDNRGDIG

These are yes or no findings as the source states them, for the method shown. Some entries that bind do so weakly or less than the wild type.

The target in test [1] is human IL-23R (hIL-23R), custom construct with C-terminal avi and his tags, biotinylated (human) (UniProt Q5VWK5). As to the kind of experiment: yeast display FACS and NGS analysis.
The target is the same in test [2]. In words: yeast display FACS.
Test [3] shares this target. As to the kind of experiment: yeast display, FACS rounds for binding labeled hIL-23R, NGS enrichment.
For test [4] the target is unchanged. As to the kind of experiment: biolayer interferometry titration, biotinylated hIL-23R immobilised on streptavidin tips. For orientation: BLI is a label-free optical method that tracks binding on a fibre tip over time.
For test [5] the target is unchanged. In words: yeast display FACS, SIF incubation then labeled hIL-23R, 5-7 rounds.

As to NLWQIFYLLNTCIKRTG (designed binder) [B04dslf02_trunc01], the binding entry in test [1] is reported as “binds”.
In the case of FCITCNNQTFCAEWRWMAWYLCWRAR (designed binder) [23R_mini_18], the binding entry in test [2] is “binds”.
For TVVIINGVPFWFEFLWELFIFALLMALALGLKIEFHGELIEVK (designed binder) [23R_F], the binding entry in test [3] is recorded as “binds”.
With CRVCLNNFCVDAQMCWMAWYLLTKYR (designed binder) [23R_mini_15], the binding entry in test [2] is on record as “binds”.
On to NLWQIFYLLNTCIKRTGDPTCKKLK (designed binder) [B04dslf02_trunc04], for which the binding entry in test [1] is “binds”.

B1: 23R_D (designed binder)
chain: ELWFLMALVIAACLWAWKASNVEEAEEALWWALVMAREANMRQLEEFVKRMREEVRRHL
On to B1, for which the binding result in test [3] was “binds”.

B2: 23R_A (designed binder)
chain: MESEKYLRELVKKYYEGKLSVQEAVEEVRKYARKKGLEAWMLTWMFMELVKRYIHHHHHH
As to B2, the binding entry in test [4] is “binds”.
NLWQIFYLLNTCIKRTGDPTCKKLKKALRECLKKGDE (designed binder) [B04dslf02_trunc09]: the binding entry in test [1] is listed as “binds”.
On to NLWQIFYLLNTCIKRTGDPTCKKLKKALRECLKKGDEKACKELAK (designed binder) [B04dslf02_trunc14], for which the binding result in test [1] is reported as “binds”.
Take CRVCMNNFCVDAQMCWMAFYLLNKYN (designed binder) [23R_mini_14]: the binding result in test [2] was “binds”.
For the molecule NLWQIFYLLNTCIKRTGDPTCKKLKKALRECLKKGDEKACKELA (designed binder) [B04dslf02_trunc13], the binding result in test [1] is “binds”.

B3: B04dslf02_trunc16 (designed binder)
chain: NLWQIFYLLNTCIKRTGDPTCKKLKKALRECLKKGDEKACKELAKKAMKYI
Take B3: the binding entry in test [1] was “binds”.
Consider NLWQIFYLLNTCIKRTGDPTCKKLKKALRECLKKGD (designed binder) [B04dslf02_trunc08], for which, in test [1], the binding entry is on record as “binds”.
In the case of DVVVLLGLVIVIPERWRLWLIVVIAARVMGLRVEVHGHVIIVI (designed binder) [23R_E], the binding entry in test [3] was “binds”.
For NLWQIFYLLNTCIKRTGDPTCKKLKKALRECLKKGDEKACK (designed binder) [B04dslf02_trunc11], the binding result in test [1] was “binds”.

B4: 23R_G (designed binder)
chain: TPARELVRELVALALLIAVLRNDIVRLTLDVQGFKITVDVDAHWEAFVRILLLAEILVLEWLKG
On to B4, for which, in test [3], the binding result was “binds”.
As to NLWQIFYLLNTCIKRTGDPTCKKLKKALRECLKKGDEKACKE (designed binder) [B04dslf02_trunc12], the binding result in test [1] is on record as “binds”.
Regarding NLWQIFYLLNTCIKRTGDPTCKKLKKALRECLK (designed binder) [B04dslf02_trunc07], the binding entry in test [1] was “binds”.
Take GRWELLVLAYLALLLGAAEAVWRLLELAKKLGDEMAFRWILELWERAL (designed binder) [23R_I]: in test [3], the binding entry is recorded as “binds”.
On the same count and under the same terms, in the case of PEELRRRVEHFLRQGVERWMVMWMLIQQGFDNKEVWKVLQEVL (designed binder) [23R_C] it was “binds”.
Turning to NLWQIFYLLNTCIKRTGDPTCK (designed binder) [B04dslf02_trunc03], the binding result in test [1] was “binds”.

B5: 23R_H (designed binder)
chain: DWRELMLVWMALWWIWWAFLAGVPLIVEVVVNGLHFRVIVDRDPTTNKRALDIMLWVWEWLATL
For B5, in test [3], the binding result is on record as “binds”.
Consider NLWQIFYLLNTCIKRTGDPTC (designed binder) [B04dslf02_trunc02], for which, in test [1], the binding entry is recorded as “binds”.
On to CKVKCGPVEFQAQMNWMCFYWRWRYC (designed binder) [23R_mini_13], for which the binding result in test [2] is reported as “binds”.

B6: B04dslf02IB (designed binder)
chain: PLWQVFYLLNTCIKRTGDPTCKKLAKALRECLKKGDLKACNELADKAVKYINSHHHHHH
With B6, in test [5], the binding result is on record as “binds”.
Turning to NLWQIFYLLNTCIKRTGDPTCKKLKKALRECL (designed binder) [B04dslf02_trunc06], the binding entry in test [1] is reported as “binds”.
As to NLWQIFYLLNTCIKRTGDPTCKKLKKAL (designed binder) [B04dslf02_trunc05], the binding result in test [1] is “binds”.
For the molecule NLWQIFYLLNTCIKRTGDPTCKKLKKALRECLKKGDEKAC (designed binder) [B04dslf02_trunc10], the binding result in test [1] is “binds”.
Take CKVKCGPVEFQATARWMCFYWWWKYC (designed binder) [23R_mini_17]: in test [2], the binding result is “binds”.
Same read-out and setting: to FCITCGNETFCSEWRWEAFYLCQKAR (designed binder) [23R_mini_16] belongs “binds”.
As to NLWQIFYLLNTCIKRTGDPTCKKLKKALRECLKKGDEKACKELAKKAM (designed binder) [B04dslf02_trunc15], the binding entry in test [1] was “binds”.
